Results as given in PMC11622160.
No constants are given. Whether binding was seen depends on the method and setting. Binding seen in cells or lysates may run through a third protein. Some entries that bind do so weakly or less than the wild type.

Protein sequences, listed by entry. Tags and fused reporters are not part of them.
UniProt Q9H1Y0: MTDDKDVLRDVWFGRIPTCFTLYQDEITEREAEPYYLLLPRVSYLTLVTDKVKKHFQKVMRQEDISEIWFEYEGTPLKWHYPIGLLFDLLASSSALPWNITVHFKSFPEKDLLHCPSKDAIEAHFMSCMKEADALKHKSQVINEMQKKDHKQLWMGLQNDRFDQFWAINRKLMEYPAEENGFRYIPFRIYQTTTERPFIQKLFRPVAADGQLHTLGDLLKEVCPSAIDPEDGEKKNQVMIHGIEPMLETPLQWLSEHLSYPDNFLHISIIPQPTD

Target: autophagy-related protein 5 (Atg5) (human (endogenous in HCE-2)) (UniProt Q9H1Y0)
Assay: co-IP; HCEC lysate (cells in normal or hyperosmotic medium for six hours) incubated overnight at 4°C with Atg5 antibody (1:100), Perilipin3 antibody (1:100) or control IgG; rProtein A/G beads; immunoprecipitates analysed by Western blot

- binding: binds
B1: Perilipin3 (protein, UniProt O60664 1-434)
chain: MSADGAEADGSTQVTVEEPVQQPSVVDRVASMPLISSTCDMVSAAYASTKESYPHIKTVCDAAEKGVRTLTAAAVSGAQPILSKLEPQIASASEYAHRGLDKLEENLPILQQPTEKVLADTKELVSSKVSGAQEMVSSAKDTVATQLSEAVDATRGAVQSGVDKTKSVVTGGVQSVMGSRLGQMVLSGVDTVLGKSEEWADNHLPLTDAELARIATSLDGFDVASVQQQRQEQSYFVRLGSLSERLRQHAYEHSLGKLRATKQRAQEALLQLSQVLSLMETVKQGVDQKLVEGQEKLHQMWLSWNQKQLQGPEKEPPKPEQVESRALTMFRDIAQQLQATCTSLGSSIQGLPTNVKDQVQQARRQVEDLQATFSSIHSFQDLSSSILAQSRERVASAREALDHMVEYVAQNTPVTWLVGPFAPGITEKAPEEKK
